Measured values taken from patent publication US20240067751A1.
No constants are given. Whether binding was seen depends on the method and setting. Some results given as binding are weak or reduced against the parent protein; the word gives no strength. Values belong to the binder of their own block, whether it stands above or below them.

By UniProt entry, the sequences of proteins in these tests, tags left out. Where a name states a change or a piece, a line headed by the entry shows the natural chain unless it says otherwise. Residues count along the entry.
UniProt O00187, residues 16-686: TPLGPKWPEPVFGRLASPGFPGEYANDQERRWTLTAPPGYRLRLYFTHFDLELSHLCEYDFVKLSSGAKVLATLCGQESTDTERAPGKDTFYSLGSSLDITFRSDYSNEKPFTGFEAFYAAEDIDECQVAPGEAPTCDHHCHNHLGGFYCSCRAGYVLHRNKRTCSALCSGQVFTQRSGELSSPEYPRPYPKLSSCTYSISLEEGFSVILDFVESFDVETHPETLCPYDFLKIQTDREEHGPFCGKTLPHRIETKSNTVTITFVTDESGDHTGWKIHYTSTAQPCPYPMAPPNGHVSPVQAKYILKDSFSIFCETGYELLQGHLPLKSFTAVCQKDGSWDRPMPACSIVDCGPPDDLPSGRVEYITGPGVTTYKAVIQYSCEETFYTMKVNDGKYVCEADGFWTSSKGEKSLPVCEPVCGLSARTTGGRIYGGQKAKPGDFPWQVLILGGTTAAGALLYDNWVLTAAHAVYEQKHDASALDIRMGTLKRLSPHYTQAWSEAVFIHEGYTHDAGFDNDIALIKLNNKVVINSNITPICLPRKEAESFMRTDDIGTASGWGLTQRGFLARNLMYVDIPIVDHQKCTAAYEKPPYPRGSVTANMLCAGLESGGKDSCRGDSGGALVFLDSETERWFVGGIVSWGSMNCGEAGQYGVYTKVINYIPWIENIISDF
UniProt Q91WP0: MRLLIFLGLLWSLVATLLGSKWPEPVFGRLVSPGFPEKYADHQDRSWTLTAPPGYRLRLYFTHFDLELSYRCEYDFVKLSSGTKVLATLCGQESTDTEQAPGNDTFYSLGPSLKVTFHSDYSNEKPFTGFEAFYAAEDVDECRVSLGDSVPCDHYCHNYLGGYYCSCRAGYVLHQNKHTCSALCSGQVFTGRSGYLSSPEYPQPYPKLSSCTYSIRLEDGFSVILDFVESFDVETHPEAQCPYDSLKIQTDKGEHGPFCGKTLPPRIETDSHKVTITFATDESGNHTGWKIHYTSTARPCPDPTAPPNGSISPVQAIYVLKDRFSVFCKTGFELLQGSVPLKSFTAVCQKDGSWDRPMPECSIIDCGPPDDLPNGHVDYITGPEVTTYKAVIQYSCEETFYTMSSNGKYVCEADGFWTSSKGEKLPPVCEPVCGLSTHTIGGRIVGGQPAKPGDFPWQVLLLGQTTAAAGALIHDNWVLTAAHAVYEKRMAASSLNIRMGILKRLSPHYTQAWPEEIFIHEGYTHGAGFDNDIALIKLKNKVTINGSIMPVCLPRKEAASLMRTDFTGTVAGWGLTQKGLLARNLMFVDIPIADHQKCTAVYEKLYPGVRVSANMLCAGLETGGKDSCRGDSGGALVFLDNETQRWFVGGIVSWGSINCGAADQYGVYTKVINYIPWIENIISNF

Tests used:
[1] = target: MASP-2 in human serum (human) (UniProt O00187); assay: 'affinity assay' of the Fab expressed in E. coli, shown in FIG. 8
[2] = target: human MASP-2 D4-6 recombinant protein (human) (UniProt O00187); assay: ELISA, coated antigen
[3] = target: Cynomolgus monkey MASP-2 D4-6 recombinant protein (Cynomolgus monkey); assay: ELISA, coated antigen
[4] = target: mouse MASP-2 D4-6 recombinant protein (mouse) (UniProt Q91WP0); assay: ELISA, coated antigen

- binding [1]: binds
B1: 28O14 S-A mutant (Ala102) Fab (Fab, V domains shown)
VH: QVQLQQSGTELARPGASVRMSCKASGYTFRSHTMHWVKQRPGQGLEWIGYINPSTGYINYNQKFKDKATLTADKSSSTAYMQLSSLTSEDSAVYYCARSNYAYYYGMDYWGQGTSVTVSS
VL: DIVMTQSHKFMSTSVGDRVTITCKASQDVNTAVAWYQQKPGQSPKLLIYSASYRYTGVPDRFTGSGSGTDFTFTISSLQAEDLAVYYCQQHYNIPLTFGAGTKLELK

- binding [2]: binds
- binding [3]: binds
- binding [4]: binds
B2: chimeric antibody 4F18 (antibody, V domains shown)
VH: EVQLQESGPGLVKPSQSLSLACTVTGYSITSDYAWHWIRQFPGNKLEWMGFISYSGRTNYNPPLTSRISITRDTSKNQFFLQLNSVTTEDTATYYCARSYDYWFGYWGQGTLVTVSA
VL: NVLMTQTPLSLPVSLGDQASISCRSSQSLVHSNGNTYLEWYMQKPGQSPKLLIYTVSRRFSGVPDRFSGSGSGTDFTLKISRVEAEDLGVYYCFQGSHVPVTFGAGTKLELK
